In the supplement of paper PMC10849652:
Some of the results follow.

Amino acid sequences for entries named in this document (tags omitted). A change or cut given only in a name is not applied to a line headed by its entry.
UniProt Q16610: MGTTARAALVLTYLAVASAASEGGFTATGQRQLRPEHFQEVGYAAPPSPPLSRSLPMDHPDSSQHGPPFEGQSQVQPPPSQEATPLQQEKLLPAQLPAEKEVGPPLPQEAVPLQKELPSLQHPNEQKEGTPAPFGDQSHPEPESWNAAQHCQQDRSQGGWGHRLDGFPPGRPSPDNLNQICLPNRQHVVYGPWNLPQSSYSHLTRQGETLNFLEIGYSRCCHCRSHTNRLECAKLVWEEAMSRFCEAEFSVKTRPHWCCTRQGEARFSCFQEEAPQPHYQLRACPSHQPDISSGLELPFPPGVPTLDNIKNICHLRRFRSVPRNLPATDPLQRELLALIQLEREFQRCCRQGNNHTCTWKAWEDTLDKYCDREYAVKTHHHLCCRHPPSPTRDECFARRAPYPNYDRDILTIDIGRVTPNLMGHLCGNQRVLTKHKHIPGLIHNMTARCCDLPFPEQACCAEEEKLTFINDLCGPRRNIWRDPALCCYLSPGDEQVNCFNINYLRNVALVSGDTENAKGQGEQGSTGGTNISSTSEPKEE
UniProt O75071: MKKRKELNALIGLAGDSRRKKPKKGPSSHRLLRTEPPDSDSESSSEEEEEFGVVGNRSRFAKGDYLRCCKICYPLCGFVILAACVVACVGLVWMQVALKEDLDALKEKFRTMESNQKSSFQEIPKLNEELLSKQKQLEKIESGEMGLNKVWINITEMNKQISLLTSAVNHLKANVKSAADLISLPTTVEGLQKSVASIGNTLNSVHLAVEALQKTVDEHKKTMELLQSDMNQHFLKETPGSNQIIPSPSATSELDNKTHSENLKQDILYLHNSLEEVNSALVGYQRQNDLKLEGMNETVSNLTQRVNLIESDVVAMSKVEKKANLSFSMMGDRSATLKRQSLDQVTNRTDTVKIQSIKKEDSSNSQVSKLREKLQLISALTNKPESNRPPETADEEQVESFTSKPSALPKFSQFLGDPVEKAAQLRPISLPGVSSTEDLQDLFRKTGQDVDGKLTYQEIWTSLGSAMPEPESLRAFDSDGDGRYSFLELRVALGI
UniProt Q9BVJ7: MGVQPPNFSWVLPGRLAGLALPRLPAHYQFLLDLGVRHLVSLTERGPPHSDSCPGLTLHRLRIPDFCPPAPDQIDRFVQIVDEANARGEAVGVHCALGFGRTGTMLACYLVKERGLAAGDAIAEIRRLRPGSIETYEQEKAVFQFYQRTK
UniProt Q9BVC3, whole entry, looked up: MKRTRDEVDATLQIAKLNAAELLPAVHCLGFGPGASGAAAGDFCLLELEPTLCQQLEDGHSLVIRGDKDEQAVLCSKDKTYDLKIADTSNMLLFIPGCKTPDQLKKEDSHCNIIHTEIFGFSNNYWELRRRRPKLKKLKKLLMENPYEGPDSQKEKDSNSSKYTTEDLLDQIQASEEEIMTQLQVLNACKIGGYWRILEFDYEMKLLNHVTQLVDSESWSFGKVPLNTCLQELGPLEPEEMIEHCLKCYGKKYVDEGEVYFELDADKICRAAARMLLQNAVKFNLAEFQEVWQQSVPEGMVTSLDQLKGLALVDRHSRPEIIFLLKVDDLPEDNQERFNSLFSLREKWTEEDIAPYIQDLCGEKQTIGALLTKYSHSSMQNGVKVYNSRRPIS
UniProt O75521: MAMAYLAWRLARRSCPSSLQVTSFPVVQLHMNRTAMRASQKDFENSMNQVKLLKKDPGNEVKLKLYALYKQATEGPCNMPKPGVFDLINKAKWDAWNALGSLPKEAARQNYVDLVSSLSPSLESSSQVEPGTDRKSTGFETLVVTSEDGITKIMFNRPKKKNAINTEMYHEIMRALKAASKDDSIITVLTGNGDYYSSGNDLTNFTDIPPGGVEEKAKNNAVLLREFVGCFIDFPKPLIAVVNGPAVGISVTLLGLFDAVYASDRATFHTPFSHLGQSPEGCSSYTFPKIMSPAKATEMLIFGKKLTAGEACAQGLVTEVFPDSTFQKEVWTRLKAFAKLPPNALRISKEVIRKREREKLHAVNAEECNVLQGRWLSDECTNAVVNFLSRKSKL
UniProt Q7Z2Z2: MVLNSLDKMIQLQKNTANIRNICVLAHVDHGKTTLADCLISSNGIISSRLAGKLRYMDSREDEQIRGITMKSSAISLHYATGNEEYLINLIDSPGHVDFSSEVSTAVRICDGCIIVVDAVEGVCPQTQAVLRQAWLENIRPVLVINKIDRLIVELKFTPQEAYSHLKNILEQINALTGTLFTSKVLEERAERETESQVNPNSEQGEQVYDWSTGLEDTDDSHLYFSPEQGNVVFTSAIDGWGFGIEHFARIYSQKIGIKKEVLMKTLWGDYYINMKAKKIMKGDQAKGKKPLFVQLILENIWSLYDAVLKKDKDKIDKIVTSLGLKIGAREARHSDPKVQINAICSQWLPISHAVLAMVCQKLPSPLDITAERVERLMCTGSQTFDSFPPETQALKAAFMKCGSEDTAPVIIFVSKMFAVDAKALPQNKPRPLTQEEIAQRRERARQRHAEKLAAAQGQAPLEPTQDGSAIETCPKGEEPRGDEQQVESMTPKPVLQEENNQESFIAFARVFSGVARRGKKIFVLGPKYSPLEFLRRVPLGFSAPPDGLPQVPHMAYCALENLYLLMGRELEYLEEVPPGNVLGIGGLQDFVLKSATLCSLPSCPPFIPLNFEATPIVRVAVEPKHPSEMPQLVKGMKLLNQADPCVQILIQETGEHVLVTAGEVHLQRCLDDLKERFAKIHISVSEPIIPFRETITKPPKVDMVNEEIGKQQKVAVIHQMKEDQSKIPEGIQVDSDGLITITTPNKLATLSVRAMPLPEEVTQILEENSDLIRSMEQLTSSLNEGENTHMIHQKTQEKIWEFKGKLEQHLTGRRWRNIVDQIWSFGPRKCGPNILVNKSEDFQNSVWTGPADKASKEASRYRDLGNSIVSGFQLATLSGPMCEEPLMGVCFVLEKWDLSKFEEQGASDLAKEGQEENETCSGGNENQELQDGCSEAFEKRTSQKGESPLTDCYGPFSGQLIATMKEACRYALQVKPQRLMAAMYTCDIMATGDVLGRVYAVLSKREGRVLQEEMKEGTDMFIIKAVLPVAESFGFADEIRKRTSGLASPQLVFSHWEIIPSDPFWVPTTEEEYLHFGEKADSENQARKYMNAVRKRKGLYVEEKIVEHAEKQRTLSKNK
UniProt Q05639, whole entry, looked up: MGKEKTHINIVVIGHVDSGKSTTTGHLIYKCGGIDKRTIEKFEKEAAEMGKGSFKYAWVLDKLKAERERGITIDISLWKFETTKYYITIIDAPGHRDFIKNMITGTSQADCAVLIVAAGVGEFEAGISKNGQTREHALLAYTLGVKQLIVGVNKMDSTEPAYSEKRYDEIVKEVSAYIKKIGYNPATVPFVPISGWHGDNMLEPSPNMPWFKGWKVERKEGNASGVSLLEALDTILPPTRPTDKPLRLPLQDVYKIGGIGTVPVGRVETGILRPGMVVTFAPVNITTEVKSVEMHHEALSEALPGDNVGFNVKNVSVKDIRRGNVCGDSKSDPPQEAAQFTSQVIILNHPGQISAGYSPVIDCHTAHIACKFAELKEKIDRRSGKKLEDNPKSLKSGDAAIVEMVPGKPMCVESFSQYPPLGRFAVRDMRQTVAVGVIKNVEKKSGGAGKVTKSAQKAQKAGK
UniProt O43324: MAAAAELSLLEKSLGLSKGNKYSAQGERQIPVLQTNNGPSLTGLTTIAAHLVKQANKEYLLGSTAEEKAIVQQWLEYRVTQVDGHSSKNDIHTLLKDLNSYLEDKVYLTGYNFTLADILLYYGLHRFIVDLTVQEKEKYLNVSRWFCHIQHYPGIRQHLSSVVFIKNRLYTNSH
UniProt Q15029: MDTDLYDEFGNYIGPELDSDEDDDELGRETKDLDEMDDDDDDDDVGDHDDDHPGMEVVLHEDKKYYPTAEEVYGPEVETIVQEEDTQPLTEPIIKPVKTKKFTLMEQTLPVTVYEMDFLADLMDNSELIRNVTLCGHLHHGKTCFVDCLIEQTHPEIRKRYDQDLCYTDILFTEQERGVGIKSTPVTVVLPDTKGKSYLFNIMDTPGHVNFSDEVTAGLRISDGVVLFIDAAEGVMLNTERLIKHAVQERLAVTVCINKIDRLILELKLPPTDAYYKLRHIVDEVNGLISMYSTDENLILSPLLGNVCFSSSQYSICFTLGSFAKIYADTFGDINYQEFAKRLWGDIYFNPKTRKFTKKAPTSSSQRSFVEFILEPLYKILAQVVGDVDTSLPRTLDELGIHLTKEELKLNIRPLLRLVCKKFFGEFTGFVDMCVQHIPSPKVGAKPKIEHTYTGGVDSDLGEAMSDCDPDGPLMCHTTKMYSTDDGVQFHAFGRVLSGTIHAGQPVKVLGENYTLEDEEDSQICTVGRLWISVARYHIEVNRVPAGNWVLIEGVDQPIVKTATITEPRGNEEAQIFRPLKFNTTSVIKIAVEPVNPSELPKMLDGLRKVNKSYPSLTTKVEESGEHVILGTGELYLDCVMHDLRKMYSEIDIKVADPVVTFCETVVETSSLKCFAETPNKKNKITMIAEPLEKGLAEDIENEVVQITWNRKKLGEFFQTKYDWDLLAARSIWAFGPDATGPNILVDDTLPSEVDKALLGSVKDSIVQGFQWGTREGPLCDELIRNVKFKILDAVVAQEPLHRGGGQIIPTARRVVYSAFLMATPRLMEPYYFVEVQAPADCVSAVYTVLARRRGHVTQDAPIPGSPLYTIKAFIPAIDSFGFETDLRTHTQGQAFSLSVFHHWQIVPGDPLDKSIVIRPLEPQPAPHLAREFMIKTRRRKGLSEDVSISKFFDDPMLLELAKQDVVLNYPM
UniProt Q8WWZ3: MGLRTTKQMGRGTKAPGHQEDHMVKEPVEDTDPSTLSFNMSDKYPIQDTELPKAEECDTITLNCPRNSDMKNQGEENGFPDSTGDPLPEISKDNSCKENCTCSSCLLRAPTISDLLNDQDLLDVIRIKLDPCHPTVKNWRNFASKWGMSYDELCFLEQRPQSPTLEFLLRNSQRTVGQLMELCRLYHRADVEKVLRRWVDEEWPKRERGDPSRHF
UniProt O60762: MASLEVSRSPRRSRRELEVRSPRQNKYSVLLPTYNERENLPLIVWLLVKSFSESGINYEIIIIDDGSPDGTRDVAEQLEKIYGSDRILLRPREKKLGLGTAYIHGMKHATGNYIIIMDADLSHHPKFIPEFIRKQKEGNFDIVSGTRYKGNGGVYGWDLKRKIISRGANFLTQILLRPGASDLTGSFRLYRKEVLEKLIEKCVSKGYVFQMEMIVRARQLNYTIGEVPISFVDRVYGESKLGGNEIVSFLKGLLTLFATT
UniProt Q14919: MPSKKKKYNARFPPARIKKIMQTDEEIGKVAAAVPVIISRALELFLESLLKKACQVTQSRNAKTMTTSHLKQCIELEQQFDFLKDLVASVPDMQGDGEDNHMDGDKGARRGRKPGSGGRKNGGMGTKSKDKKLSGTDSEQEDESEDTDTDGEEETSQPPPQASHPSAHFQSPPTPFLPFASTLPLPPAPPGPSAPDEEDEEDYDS

Assays:
Assay in all cases: log2 fold change, soluble protein after heating vs DMSO (PISA); higher = thermal stabilisation; K562 lysate, 10 uM; active = over 0.2 and 3.5 SD of the protein, either way, in both replicates (recomputed)
[1] = compound: C=CC(=O)N1CCC[C@@H](n2nc(-c3ccc(Oc4ccccc4)cc3)c3c(N)ncnc32)C1 [ibrutinib]
How it was run: (§1)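 Dounce homogenisation of K562 pellets in PBS pH 7.4 with 1 mM MgCl2 produced a crude extract, used at 1 mg/mL protein. Exposure to 10 μM compound lasted 30 min, and aliquots were then heated for 3 min across 48°C-58°C, pooled and brought to 0.5% NP-40 at 4°C. The supernatant after 21,000xg for 90 min was quantified by TMTpro 16plex LC-MS/MS with channel sums equalised. Duplicate values are given as log-two fold change in thermal stability relative to solvent controls.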

[2] = compound: CC(=O)c1cnc2ccc(-c3cc(Cl)c(O)c(Cl)c3)nc2c1N[C@H]1CC[C@H](CN(C)C)CC1
How it was run: as §1

[3] = compound: CC(C)(C)Cn1c(N)nc2ccc(-c3[nH]c(C(C)(C)C)nc3-c3ccc(F)cc3)nc21 [ralimetinib]
How it was run: as §1

[4] = compound: CC(C)(O)CC(=O)NCCn1ccc2ncnc(Nc3ccc(Oc4cccc(C(F)(F)F)c4)c(Cl)c3)c21
How it was run: as §1

[5] = compound: CC(C)C1=C2N=C(C=C(N2N=C1)NCC3=CC=CC=C3)NCCCCCCN
How it was run: as §1

[6] = compound: CC1=C(C(CC(=O)N1)C2=CC=C(C=C2)C(F)(F)F)C(=O)NC3=C(C=C4C(=C3)C=NN4)F
How it was run: as §1

[7] = compound: CC1=C(C2=C(C=C1)C(=O)C3=CC=CC=C3N2CCCN)C
How it was run: as §1

[8] = compound: CC1=C(C=C(C=C1)NC(=O)C2=CC(=CC=C2)C(C)(C)C#N)NC3=CC4=C(C=C3)N=CN(C4=O)C
How it was run: as §1

[9] = compound: CC1=C(C=C(C=C1)NC(=O)C2=CC(=CC=C2)N(C)C)NC(=O)C3=CC=C(C=C3)O
How it was run: as §1

[10] = compound: CC1=CC=C(C=C1)SC2=C3C=C(SC3=CN=C2)C(=O)N
How it was run: as §1

Target | log2 fold change [1] | log2 fold change [2] | log2 fold change [3] | log2 fold change [4] | log2 fold change [5] | log2 fold change [6] | log2 fold change [7] | log2 fold change [8] | log2 fold change [9] | log2 fold change [10]
ECM1 isoform 4 (UniProt Q16610) | inactive: -0.043 | inactive: 0.036 | inactive: -0.038 | inactive: 0.017 | inactive: -0.001 | inactive: 0.074 | inactive: -0.006 | inactive: 0.006 | inactive: 0.018 | inactive: -0.012
EFCAB14 (UniProt O75071) | inactive: 0.026 | inactive: 0.015 | inactive: 0.055 | inactive: -0.075 | inactive: -0.045 | inactive: 0.077 | inactive: 0.02 | inactive: 0.011 | inactive: 0.016 | inactive: 0.012
DUSP23 (UniProt Q9BVJ7) | inactive: 0.036 | inactive: -0.065 | inactive: -0.04 | inactive: -0.084 | inactive: 0.006 | inactive: -0.004 | inactive: 0.013 | inactive: 0.019 | inactive: -0.079 | inactive: 0
DYRK1A (UniProt Q13627) | inactive: -0.019 | active: 0.264 | inactive: -0.003 | inactive: 0.011 | inactive: 0.01 | inactive: 0.007 | inactive: 0.005 | inactive: -0.007 | inactive: -0.024 | inactive: 0.034
DSCC1 (UniProt Q9BVC3) | inactive: -0.038 | inactive: 0.141 | inactive: 0.021 | inactive: -0.058 | inactive: 0.012 | inactive: 0.019 | inactive: 0.001 | inactive: -0.011 | inactive: -0.047 | inactive: -0.145
DST (UniProt Q03001) | inactive: 0.007 | inactive: -0.031 | inactive: -0.034 | inactive: -0.098 | inactive: 0.021 | inactive: -0.052 | inactive: -0.054 | inactive: 0.049 | inactive: 0.063 | inactive: -0.046
ECI2 (UniProt O75521) | inactive: 0.01 | inactive: -0.027 | inactive: -0.033 | inactive: -0.049 | inactive: -0.015 | inactive: -0.013 | inactive: -0.008 | inactive: 0.013 | inactive: 0.007 | inactive: 0
EFL1 (UniProt Q7Z2Z2) | inactive: 0.004 | inactive: 0 | inactive: -0.008 | inactive: 0.005 | inactive: -0.011 | inactive: 0.012 | inactive: 0.014 | inactive: 0 | inactive: 0.025 | inactive: -0.009
EEF1A2 (UniProt Q05639) | inactive: 0.015 | inactive: -0.004 | inactive: 0.012 | inactive: 0.017 | inactive: 0.052 | inactive: -0.059 | inactive: 0.036 | inactive: -0.014 | inactive: 0.018 | inactive: 0
EEF1E1 (UniProt O43324) | inactive: 0.01 | inactive: 0.012 | inactive: 0.031 | inactive: -0.023 | inactive: -0.01 | inactive: -0.005 | inactive: 0.008 | inactive: -0.005 | inactive: -0.006 | inactive: 0.02
EFTUD2 (UniProt Q15029) | inactive: 0.011 | inactive: -0.006 | inactive: 0.007 | inactive: 0.016 | inactive: -0.008 | inactive: -0.011 | inactive: -0.004 | inactive: 0 | inactive: -0.006 | inactive: 0.005
EDARADD (UniProt Q8WWZ3) | inactive: 0.22 | inactive: -0.019 | inactive: -0.003 | inactive: -0.071 | inactive: -0.008 | inactive: -0.007 | inactive: 0.062 | inactive: 0.041 | inactive: 0.017 | inactive: -0.035
DPM1 (UniProt O60762) | inactive: -0.016 | inactive: -0.018 | inactive: -0.025 | inactive: -0.027 | inactive: -0.009 | inactive: 0.033 | inactive: 0.015 | inactive: 0.006 | inactive: 0.014 | inactive: 0.023
DRAP1 isoform 2 (UniProt Q14919) | inactive: -0.021 | inactive: -0.002 | inactive: 0.025 | inactive: 0.015 | inactive: 0 | inactive: 0.013 | inactive: 0.025 | inactive: -0.001 | inactive: -0.002 | inactive: 0.014
